# PubChem BioAssay AID1671195, Yale University, 2021
# Test: 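Genes whose knockdown alters LDL uptake in liver cancer cells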 (primary screen)
# System: human Huh7 hepatoma cells
# Reagent: siRNA pool against human genes, 18 nM
# Timing: about 2 to 2.5 days of knockdown, then 8 h LDL uptake
# Conditions: DiI-labelled LDL at 30 µg/ml for 8 h, in lipoprotein-deficient serum medium
# Measurement: 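Fluorescent LDL signal imaged in cells, scaled to the plate median, robust z-score for each replicate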
# Reading the numbers: robust z-score: higher = more LDL uptake after knockdown
# Hit rule: 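Active when two or more replicates show a robust z-score above 2 or below -2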
# Here is one part, drawn at random, of about 22,000 reagents. Over the whole deposit, about 1,510 (6.9%) got an active call. 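Active includes knockdowns raising or lowering LDL uptake; positive z-scores mean more uptake, negative mean less.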
gene,"robust z-score, replicate 1","robust z-score, replicate 2","robust z-score, replicate 3",outcome
DKFZp434E1119 (retired record),-1.04,-0.999,-1.54,inactive
PARP12 (poly(ADP-ribose) polymerase family member 12),-0.796,-0.719,0.493,inactive
ZNF449 (zinc finger protein 449),-0.549,-0.0706,0.151,inactive
AKAP5 (A-kinase anchoring protein 5),-0.294,0.231,-0.267,inactive
MBD5 (methyl-CpG binding domain protein 5),0.281,1.28,1.7,inactive
SUSD5 (sushi domain containing 5),-1.18,-0.672,-0.549,inactive
LINC02880 (long independently transcribed non-coding RNA 2880),-1.57,-1.43,-1.45,inactive
MAGEA1 (MAGE family member A1),-0.581,0.703,-0.242,inactive
MICU1 (mitochondrial calcium uptake 1),0.356,0.296,0.562,inactive
RUBCNL (rubicon like autophagy enhancer),0.00894,-0.452,-0.237,inactive
OR4X1 (olfactory receptor family 4 subfamily X member 1),1.65,1.68,1.17,inactive
ZFP3 (ZFP3 zinc finger protein),-0.897,-1.14,-0.725,inactive
ADAMTS7 (ADAM metallopeptidase with thrombospondin type 1 motif 7),0.23,-0.281,-0.311,inactive
PPP1R16B (protein phosphatase 1 regulatory subunit 16B),-0.22,-0.308,0.0399,inactive
SULT1C4 (sulfotransferase family 1C member 4),-0.588,-0.712,-0.499,inactive
STX18 (syntaxin 18),-0.635,0.837,0.591,inactive
LOC389768,-0.18,0.125,-0.142,inactive
CAMK1D (calcium/calmodulin dependent protein kinase ID),-0.782,-0.999,-0.238,inactive
KRT33A (keratin 33A),0.299,-1.31,-0.431,inactive
HAGHL (hydroxyacylglutathione hydrolase like),-1.06,-1.33,-1.15,inactive
CCDC198 (coiled-coil domain containing 198),-0.364,-1.16,0.89,inactive
YAP1 (Yes1 associated transcriptional regulator),-1.21,0.397,0.345,inactive
RRP7A (ribosomal RNA processing 7 homolog A),2.23,0.356,2.11,active
RPL10 (ribosomal protein L10),-2.07,-0.211,-1.79,inactive
GHRL (ghrelin and obestatin prepropeptide),1.21,1.16,0.987,inactive
UCN2 (urocortin 2),-0.913,-0.329,-0.47,inactive
NEU4 (neuraminidase 4),1.15,1.36,1.63,inactive
UGT2B7 (UDP glucuronosyltransferase family 2 member B7),0.173,0.106,0.293,inactive
MARCKS (myristoylated alanine rich protein kinase C substrate),-0.229,-0.697,0.242,inactive
PCGF6 (polycomb group ring finger 6),2.21,1.35,2.86,active
ADAMTS8 (ADAM metallopeptidase with thrombospondin type 1 motif 8),-0.625,-0.642,-0.539,inactive
LY96 (lymphocyte antigen 96),1.41,1.6,2.63,inactive
TIMM21 (translocase of inner mitochondrial membrane 21),-0.703,-2.14,-0.48,inactive
GALNT13 (polypeptide N-acetylgalactosaminyltransferase 13),2.48,2.02,1.63,active
PHLDA2 (pleckstrin homology like domain family A member 2),0.487,-1.22,-0.422,inactive
"HSD3BP2 (hydroxy-delta-5-steroid dehydrogenase, 3 beta, pseudogene 2)",-0.0194,-0.382,-0.156,inactive
LOC391813 (zDHHC palmitoyltransferase 3 pseudogene),1.08,-0.0218,-0.243,inactive
RPL29P32 (ribosomal protein L29 pseudogene 32),-0.39,-0.53,-0.506,inactive
KDM6A (lysine demethylase 6A),1.2,2.11,0.417,inactive
KIAA1614,-0.405,-0.628,-1.58,inactive
PRCP (prolylcarboxypeptidase),-0.843,-0.849,-0.718,inactive
ACER3 (alkaline ceramidase 3),3.02,2.66,2.71,active
P4HA3 (prolyl 4-hydroxylase subunit alpha 3),-1.23,-0.59,-0.985,inactive
DDX27 (DEAD-box helicase 27),-0.665,-0.453,0.0267,inactive
ZNF28 (zinc finger protein 28),-0.483,-0.995,-0.627,inactive
ZNF638 (zinc finger protein 638),0.117,-0.153,0.0201,inactive
FATE1 (fetal and adult testis expressed 1),0.0754,0.103,0.573,inactive
DPP4 (dipeptidyl peptidase 4),0.16,-0.616,-0.364,inactive
GGCT (gamma-glutamylcyclotransferase),2.68,1.98,1.7,active
PDE6B (phosphodiesterase 6B),-1.22,-0.584,-1.11,inactive
PAXBP1 (PAX3 and PAX7 binding protein 1),0.321,0.273,0.637,inactive
LSR (lipolysis stimulated lipoprotein receptor),0.205,-1,0.81,inactive
P2RY4 (pyrimidinergic receptor P2Y4),0.0817,0.186,0.808,inactive
LINC00942 (long independently transcribed non-coding RNA 942),2.14,1.2,1.29,inactive
CDS2 (CDP-diacylglycerol synthase 2),-1.1,0.753,-0.844,inactive
ZNF628 (zinc finger protein 628),-1.2,-1.56,-0.805,inactive
POGLUT2 (protein O-glucosyltransferase 2),-0.356,-0.526,-0.107,inactive
SEMA3G (semaphorin 3G),1.73,0.941,0.671,inactive
ZNF441 (zinc finger protein 441),0.835,0.393,1.1,inactive
LOC388383 (retired record),-0.302,-1.28,-0.307,inactive
CDH3 (cadherin 3),-0.558,-1.03,-0.643,inactive
PHLDA1 (pleckstrin homology like domain family A member 1),0.643,0.674,0.491,inactive
RPS6P13 (ribosomal protein S6 pseudogene 13),0.0454,0.807,1.08,inactive
"SUPT7L (SPT7 like, STAGA complex subunit gamma)",-0.179,0.537,0.855,inactive
LINC02370 (long independently transcribed non-coding RNA 2370),-0.485,-0.203,-0.295,inactive
FDFT1 (farnesyl-diphosphate farnesyltransferase 1),-0.288,-0.535,-0.114,inactive
VCPKMT (valosin containing protein lysine methyltransferase),2.55,2.45,2.58,active
FNDC3B (fibronectin type III domain containing 3B),-1.77,-1.57,-1.6,inactive
SKIC3 (SKI3 subunit of superkiller complex),0.00888,0.18,-1.02,inactive
LOC344382,-0.0394,-0.392,-0.101,inactive
MRPL44 (mitochondrial ribosomal protein L44),1.85,2.26,1.48,inactive
HLTF (helicase like transcription factor),-1.48,-1.89,-1.74,inactive
SCGB1D1 (secretoglobin family 1D member 1),-0.613,-1.13,0.187,inactive
TBC1D26 (TBC1 domain family member 26),0.553,0.039,0.12,inactive
ZNF485 (zinc finger protein 485),-1.21,-1.05,-1.13,inactive
IL34 (interleukin 34),-0.988,-1.2,-0.788,inactive
MPV17 (mitochondrial inner membrane protein MPV17),-0.897,-0.384,-0.425,inactive
DUSP16 (dual specificity phosphatase 16),0.00948,0.0384,-0.29,inactive
OR1S2 (olfactory receptor family 1 subfamily S member 2),0.256,0.565,0.162,inactive
"LIPE (lipase E, hormone sensitive type)",-1.7,-1.56,-1.51,inactive
GAB2 (GRB2 associated binding protein 2),1.45,2.93,1.76,inactive
HSD17B13 (hydroxysteroid 17-beta dehydrogenase 13),0.103,-0.685,0.644,inactive
ENHO (energy homeostasis associated),-0.941,-0.39,-0.828,inactive
ERN1 (endoplasmic reticulum to nucleus signaling 1),1.89,1.49,1.88,inactive
FOXF1 (forkhead box F1),-1.09,-0.684,-1.05,inactive
PRRG2 (proline rich and Gla domain 2),-0.517,0.0142,-0.648,inactive
LOC388129 (retired record),0.481,1.1,0.969,inactive

Reformatted: entries from further up.
FDFT1 (farnesyl-diphosphate farnesyltransferase 1) — robust z-score, replicate 1 = -0.288; robust z-score, replicate 2 = -0.535; robust z-score, replicate 3 = -0.114; outcome = inactive
VCPKMT (valosin containing protein lysine methyltransferase) — robust z-score, replicate 1 = 2.55; robust z-score, replicate 2 = 2.45; robust z-score, replicate 3 = 2.58; outcome = active
FNDC3B (fibronectin type III domain containing 3B) — robust z-score, replicate 1 = -1.77; robust z-score, replicate 2 = -1.57; robust z-score, replicate 3 = -1.6; outcome = inactive
SKIC3 (SKI3 subunit of superkiller complex) — robust z-score, replicate 1 = 0.00888; robust z-score, replicate 2 = 0.18; robust z-score, replicate 3 = -1.02; outcome = inactive
LOC344382 — robust z-score, replicate 1 = -0.0394; robust z-score, replicate 2 = -0.392; robust z-score, replicate 3 = -0.101; outcome = inactive
MRPL44 (mitochondrial ribosomal protein L44) — robust z-score, replicate 1 = 1.85; robust z-score, replicate 2 = 2.26; robust z-score, replicate 3 = 1.48; outcome = inactive
HLTF (helicase like transcription factor) — robust z-score, replicate 1 = -1.48; robust z-score, replicate 2 = -1.89; robust z-score, replicate 3 = -1.74; outcome = inactive
SCGB1D1 (secretoglobin family 1D member 1) — robust z-score, replicate 1 = -0.613; robust z-score, replicate 2 = -1.13; robust z-score, replicate 3 = 0.187; outcome = inactive
TBC1D26 (TBC1 domain family member 26) — robust z-score, replicate 1 = 0.553; robust z-score, replicate 2 = 0.039; robust z-score, replicate 3 = 0.12; outcome = inactive
ZNF485 (zinc finger protein 485) — robust z-score, replicate 1 = -1.21; robust z-score, replicate 2 = -1.05; robust z-score, replicate 3 = -1.13; outcome = inactive
IL34 (interleukin 34) — robust z-score, replicate 1 = -0.988; robust z-score, replicate 2 = -1.2; robust z-score, replicate 3 = -0.788; outcome = inactive
MPV17 (mitochondrial inner membrane protein MPV17) — robust z-score, replicate 1 = -0.897; robust z-score, replicate 2 = -0.384; robust z-score, replicate 3 = -0.425; outcome = inactive
